Experimental findings from article PMC3885392 are described below.

Substitutions are numbered along the chain they refer to. These are yes or no findings as the source states them, for the method shown. In cells and extracts the contact can be indirect. A result given as binding can be weak or reduced; the word gives no strength. For some of these results: Tags and fused reporters may be left off the sequences shown.

Holding throughout (experiment): co-IP; 293T cells co-transfected with the indicated plasmids, 72 h, Brij97 lysis buffer, immunoprecipitated with anti-HA or anti-Flag antibody with mouse IgG as a control, immunoblot
In general terms: A western blot detects proteins with antibodies after separation by electrophoresis.

The target of assay [1] is T1, Flag-tagged Phafin2 (human) (UniProt Q9H8W4).
T1 sequence: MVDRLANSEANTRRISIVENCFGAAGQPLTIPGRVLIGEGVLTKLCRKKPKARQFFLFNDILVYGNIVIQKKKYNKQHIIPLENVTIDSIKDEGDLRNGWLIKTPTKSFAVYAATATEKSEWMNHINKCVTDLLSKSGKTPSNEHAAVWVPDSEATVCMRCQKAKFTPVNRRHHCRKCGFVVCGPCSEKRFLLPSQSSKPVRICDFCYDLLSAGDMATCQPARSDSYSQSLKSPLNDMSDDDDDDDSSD

In assay [2] the target is T2, Phafin2 subfragment: PH domain (human) (UniProt Q9H8W4).
T2 sequence: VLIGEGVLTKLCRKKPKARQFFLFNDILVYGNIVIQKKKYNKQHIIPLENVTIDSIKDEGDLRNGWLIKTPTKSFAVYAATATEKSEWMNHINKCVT

The target of assay [3] is T3, PtdIns(3)P interaction-defective mutant Phafin2 (R53C, R171A, and R172A) (human) (UniProt Q9H8W4).
T3 sequence: T1 sequence with R53C, R171A, R172A

Take “HA-Akt subfragment: C-terminal Akt kinase domain (human) (domain or fragment)”: in assay [1], the binding entry was “binds”.

On to “HA-Akt (isoform not stated) (human) (enzyme)”, for which the binding result in assay [1], in assay [2] and in assay [3] was “binds” each time.
